In article PMC3423359:
Results are given in words; binding and its absence hold for the method and conditions named. For some of these results: Binding seen in cells or lysates may run through a third protein. Some entries that bind do so weakly or less than the wild type.

Amino acid sequences for entries named in this document (tags omitted). A change or cut given only in a name is not applied to a line headed by its entry.
UniProt P48729: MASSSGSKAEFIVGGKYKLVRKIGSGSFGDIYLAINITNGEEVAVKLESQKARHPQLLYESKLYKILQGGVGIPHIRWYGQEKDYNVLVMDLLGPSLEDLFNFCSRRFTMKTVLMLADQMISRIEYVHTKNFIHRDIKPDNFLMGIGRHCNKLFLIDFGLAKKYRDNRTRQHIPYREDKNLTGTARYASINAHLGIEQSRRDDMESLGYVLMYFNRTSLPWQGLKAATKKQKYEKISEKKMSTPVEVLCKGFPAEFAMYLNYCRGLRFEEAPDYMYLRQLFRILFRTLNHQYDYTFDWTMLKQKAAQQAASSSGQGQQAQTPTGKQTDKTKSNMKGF
UniProt Q00987: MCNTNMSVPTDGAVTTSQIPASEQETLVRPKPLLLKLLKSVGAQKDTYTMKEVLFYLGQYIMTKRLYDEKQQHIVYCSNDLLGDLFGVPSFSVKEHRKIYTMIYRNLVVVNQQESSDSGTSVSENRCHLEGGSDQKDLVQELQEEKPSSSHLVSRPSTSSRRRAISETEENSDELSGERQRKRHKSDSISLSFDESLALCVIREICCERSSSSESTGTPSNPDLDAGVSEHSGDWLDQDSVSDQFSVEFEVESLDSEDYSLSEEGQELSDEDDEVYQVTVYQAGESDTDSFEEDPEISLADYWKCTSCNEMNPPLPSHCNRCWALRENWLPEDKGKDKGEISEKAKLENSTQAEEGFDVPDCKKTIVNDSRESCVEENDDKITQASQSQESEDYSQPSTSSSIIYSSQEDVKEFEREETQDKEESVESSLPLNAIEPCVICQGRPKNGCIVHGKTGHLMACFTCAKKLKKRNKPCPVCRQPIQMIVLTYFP

Key:
[1] = molecular target: CK1α splice variant 2, endogenous in A375 cells (human (endogenous in A375)) (UniProt P48729); assay: co-IP; A375 lysate, untransfected or transfected with untagged MDM2; MDM2 (antibodies 2A10, 2A9, 4B2, 3G5, SMP14) or CK1α (antibody C-19) immunoprecipitated on Protein G Sepharose; Western blot
[2] = molecular target: T1, CK1α peptide 35 (biotin-SGSG-15-mer) (human); assay: pull-down; 10 µg biotinylated CK1α peptide on streptavidin-agarose columns; 0.5 mg pre-cleared A375 lysate, 1 hour at room temperature; immunoblot for MDM2; only the target purified
T1 sequence (peptide, biotin on the N-terminus): SGSGDYMYLRQLFRILFRT

[3] = molecular target: One-STrEP-tagged CK1α splice variant 2 (human) (UniProt P48729); assay: pull-down; One-STrEP-tagged CK1α sp1 or sp2 transfected into A375; 3 mg lysate (0.2% Triton) on strep-Tactin MacroPrep, 1 hour at 4°C; Western blot for endogenous MDM2
[4] = molecular target: GST-CK1α splice variant 2 (human) (UniProt P48729); assay: ELISA; 20 ng GST-CK1α sp1 or sp2 coated on the plate, titration of GST-cleaved MDM2 in 3% BSA/PBS, 1 hour at room temperature; anti-MDM2 2A10, ECL; both purified
[5] = molecular target: T1, CK1α peptide 35 (biotin-SGSG-15-mer) (human); assay: ELISA; biotinylated CK1α peptides (1 µg per well) on streptavidin coated plates; 20 ng GST-cleaved MDM2 in 3% BSA/PBS, 1 hour; anti-MDM2, ECL; both purified
[6] = molecular target: GST-CK1α splice variant 2 (human) (UniProt P48729); assay: ELISA; competition: fixed amount of MDM2 pre-incubated 20 min at room temperature with a titration of peptide in 25 mM Hepes (pH 7.5), 50 mM KCl, 10 mM MgCl2, then added to GST-CK1α sp2 (20 ng/well) coated on the plate; both purified
[7] = molecular target: murine double minute chromosome 2 (MDM2) oncoprotein, endogenous in A375 cells (human (endogenous in A375)) (UniProt Q00987); assay: co-IP; A375 lysate, untransfected or transfected with untagged MDM2; MDM2 (antibodies 2A10, 2A9, 4B2, 3G5, SMP14) or CK1α (antibody C-19) immunoprecipitated on Protein G Sepharose; Western blot
[8] = molecular target: untagged MDM2 transfected into A375 cells (pCMV wild type MDM2) (UniProt Q00987); assay: as above
[9] = molecular target: purified GST-cleaved MDM2 (UniProt Q00987); assay: ELISA; inverse: 50 ng GST-cleaved MDM2 coated on the plate, titration of GST-CK1α sp1 or sp2 in 3% BSA/PBS, 1 hour at room temperature; anti-CK1α, ECL; both purified

## untagged MDM2 transfected into A375 cells (pCMV wild type MDM2) (from UniProt Q00987 1-491)
[1]
  binding: binds

## murine double minute chromosome 2 (MDM2) oncoprotein, endogenous in A375 cells (from UniProt Q00987 1-491)
[1]
  binding: binds
[2]
  binding: binds
[3]
  binding: binds

## purified GST-cleaved MDM2 (from UniProt Q00987 1-491)
[4]
  binding: binds
[5]
  binding: binds
[6]
  binding: binds

## CK1α splice variant 2, endogenous in A375 cells (from UniProt P48729-1 1-337)
[7]
  binding: binds
[8]
  binding: binds

## GST-CK1α splice variant 2 (from UniProt P48729-1 1-337)
[9]
  binding: binds
